This passage reports binding result, binding signal (% of WT LARP6 (about 50% reduction)) and binding signal (% (reference)) results from article doi:10.1101/2020.09.30.320564.

What all share (assay): EMSA
(In general: A gel shift assay detects complexes by their altered migration in electrophoresis.)

One series addresses La-domain N122A (human) (UniProt Q9BRS8). The following applies: protein in an extract; residues 81-182.
For series [1], the target named is LARP6 full size N122A (human) (UniProt Q9BRS8). To be noted: protein in an extract; residues 1-491.
The target of a further series is La-domain R121A (human) (UniProt Q9BRS8). To be noted: protein in an extract; residues 81-182.
Series [2] deals with T1, RRM domain, HEK293 (human) (UniProt Q9BRS8).
T1 sequence (looked up): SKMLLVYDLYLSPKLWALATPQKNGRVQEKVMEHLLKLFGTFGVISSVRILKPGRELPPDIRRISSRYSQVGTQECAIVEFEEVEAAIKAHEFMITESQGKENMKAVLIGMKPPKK
To be noted: protein in an extract; residues 183-298.

The target in the next series is La-domain delta8 (human) (UniProt Q9BRS8). To be noted: protein in an extract; residues 81-174.
In series [3] the target is LARP6 full size K123A (human) (UniProt Q9BRS8). To be noted: protein in an extract; residues 1-491.
A further series deals with La-domain K123A (human) (UniProt Q9BRS8). The following applies: protein in an extract; residues 81-182.
The target in series [4] is LARP6 full size NK/AA N122A,K123A (human) (UniProt Q9BRS8). The following applies: protein in an extract; residues 1-491.
Series [5] concerns the target LARP6 full size R121A (human) (UniProt Q9BRS8). The following applies: protein in an extract; residues 1-491.
Series [6] deals with truncated La-domain + random sequence 2 (Fig 4B lane 3) (human) (UniProt Q9BRS8). To be noted: partially restored; protein in an extract.
The target in series [7] is La-domain delta16 (human) (UniProt Q9BRS8). The following applies: protein in an extract; residues 81-166.
Series [8] deals with LARP6 full size RN/AA R121A,N122A (human) (UniProt Q9BRS8). The following applies: protein in an extract; residues 1-491.
The target of series [9] is La-domain + 26 random aa (Fig 4B lane 4) (human) (UniProt Q9BRS8). The following applies: binding increased; protein in an extract.
For series [10], the target named is La-module RK/AA R121A,K123A (human) (UniProt Q9BRS8). The following applies: drastically reduced.
The target of the next series is LARP6 full size (human) (UniProt Q9BRS8). To be noted: protein in an extract; residues 1-491.
The target in series [11] is truncated La-domain + random sequence 1 (Fig 4B lane 2) (human) (UniProt Q9BRS8). To be noted: partially restored; protein in an extract.
The target of series [12] is LARP6 full size RK/AA R121A,K123A (human) (UniProt Q9BRS8). The following applies: protein in an extract; residues 1-491.
The target of series [13] is La-domain, HEK293 (human) (UniProt Q9BRS8). To be noted: protein in an extract; residues 81-182.

For part of these data: Results from cells or extracts need not show a direct contact. For part of these data: No signal at the amounts used counts as a negative. For part of these data: Protein sequences can lack the tags named with them. For part of these data: The exact form of at least one protein or probe is not confirmed. For part of these data: Weaker means in comparison with the reference protein, sequence or condition of that experiment. For part of these data: At least one verdict was read from the data and is not stated in words by the source. For part of these data: Whether high values mean tight binding is not given here for every scale.

“CACAAGGAGUCUGCAUGUCUAAGUGCUAGACAUGCUCAGCUUUGUG [α2(I) 5'SL]”: the binding result is “no binding” with La-domain N122A (human); “no binding” with La-domain R121A (human); “no binding” in series [2]; “no binding” in the series with La-domain delta8 (human); “no binding” with La-domain K123A (human); “binds more weakly” in [4]. For the same sequence, the binding result in series [6] is “binds more weakly”; in [7], “no binding”; in series [8] it was “binds more weakly”; in series [9] it was “binds”; in series [10], “binds more weakly”; in [11], “binds more weakly”. The binding result in [12] is “binds more weakly”. For the same sequence, the binding signal (% of WT LARP6 (about 50% reduction)) in series [1], in [3] and in [5] was 50 in each case. Moreover, the binding signal (% (reference)) with LARP6 full size (human) worked out at 100.

As to “CCACAAAGAGUCUACAUGUCUAGGGUCUAGACAUGUUCAGCUUUGUGG [α1(I) 5'SL]”, the binding result with La-domain N122A (human) is given as “no binding”; with La-domain R121A (human), “no binding”; in series [13] it was “binds”; with La-domain K123A (human) it was “no binding”.
